Laboratory results published in PMC3951440, “Assessing Specific Oligonucleotides and Small Molecule Antibiotics for the Ability to Inhibit the CRD-BP-CD44 RNA Interaction” (PLoS ONE, 2014).

Amino acid sequences for entries named in this document (tags omitted).
UniProt O88477, whole entry: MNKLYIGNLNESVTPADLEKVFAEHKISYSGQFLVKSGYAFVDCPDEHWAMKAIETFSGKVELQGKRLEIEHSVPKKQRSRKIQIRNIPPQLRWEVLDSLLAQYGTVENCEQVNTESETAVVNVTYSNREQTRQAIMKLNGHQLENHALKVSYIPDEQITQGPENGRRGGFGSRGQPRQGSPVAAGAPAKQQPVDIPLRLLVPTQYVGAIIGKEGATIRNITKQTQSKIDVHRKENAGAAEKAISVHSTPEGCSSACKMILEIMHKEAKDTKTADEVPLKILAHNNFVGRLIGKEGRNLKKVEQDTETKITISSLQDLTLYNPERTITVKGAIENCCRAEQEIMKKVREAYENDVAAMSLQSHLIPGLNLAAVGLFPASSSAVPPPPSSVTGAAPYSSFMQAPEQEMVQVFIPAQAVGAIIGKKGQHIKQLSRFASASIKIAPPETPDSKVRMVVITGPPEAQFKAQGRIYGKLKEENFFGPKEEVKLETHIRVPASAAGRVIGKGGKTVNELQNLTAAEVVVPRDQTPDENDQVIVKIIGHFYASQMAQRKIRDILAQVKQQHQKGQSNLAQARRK

Biological target: CRD-BP (IMP1) (mouse) (UniProt O88477)
Test: EMSA
Details: EMSA: 5 mM Tris-Cl pH 7.4, 2.5 mM EDTA, 2 mM DTT, 5% glycerol, 0.1 mg/ml BSA, 0.5 mg/ml yeast tRNA, 5 U RNasin, 30 C with ice steps, 40 nM RNA probe, recombinant protein, residues 1-577, protein details: N-terminal FLAG, C-terminal 6xHis, label: 32P-UTP internal, probe letters rebuilt from the primers and the genome

GGGAUGAGUUAAGUGCCUGGGGAGUCCCUCAAAAGGUUAAAGGGAUUCCCAUCAUUGGAAUCUUAUCACCAGAUAGGCAAGUUUAUGACCAAACAAGAGAGUACUGGCUUUAUCCUCUAACCUCAUAUUUUCUCCCACUUGGCAAGUCCUUUGUGGCAUUUAUUCAUCAGUCAGGGUGUCCGAUUGGUCCUAGAACUUCCAAAGGCUGCUUGUCAUAGAAGCCAUUGCAUCUAUAAAGCAACGGCUCCUGUUAAAUGGUAUCUCCUUUCUGAGGCUCCUACUAAAAGUCAUUUGUUACCUAAACUUAUGUG [CD44 Fragment 8 RNA]
binding signal (269 nM protein): 11.5 % bound | binding signal (1885 nM protein): 81.4 % bound
